Paper PMC12259256
Results are given in words; binding and its absence hold for the method and conditions named. In cells and extracts the contact can be indirect. Here binding means that the protein was enriched with, or labelled near, the bait; the list need not be complete.

Protein sequences, listed by entry. Tags and fused reporters are not part of them. Residues count along the entry.
UniProt P22607, residues 23-806: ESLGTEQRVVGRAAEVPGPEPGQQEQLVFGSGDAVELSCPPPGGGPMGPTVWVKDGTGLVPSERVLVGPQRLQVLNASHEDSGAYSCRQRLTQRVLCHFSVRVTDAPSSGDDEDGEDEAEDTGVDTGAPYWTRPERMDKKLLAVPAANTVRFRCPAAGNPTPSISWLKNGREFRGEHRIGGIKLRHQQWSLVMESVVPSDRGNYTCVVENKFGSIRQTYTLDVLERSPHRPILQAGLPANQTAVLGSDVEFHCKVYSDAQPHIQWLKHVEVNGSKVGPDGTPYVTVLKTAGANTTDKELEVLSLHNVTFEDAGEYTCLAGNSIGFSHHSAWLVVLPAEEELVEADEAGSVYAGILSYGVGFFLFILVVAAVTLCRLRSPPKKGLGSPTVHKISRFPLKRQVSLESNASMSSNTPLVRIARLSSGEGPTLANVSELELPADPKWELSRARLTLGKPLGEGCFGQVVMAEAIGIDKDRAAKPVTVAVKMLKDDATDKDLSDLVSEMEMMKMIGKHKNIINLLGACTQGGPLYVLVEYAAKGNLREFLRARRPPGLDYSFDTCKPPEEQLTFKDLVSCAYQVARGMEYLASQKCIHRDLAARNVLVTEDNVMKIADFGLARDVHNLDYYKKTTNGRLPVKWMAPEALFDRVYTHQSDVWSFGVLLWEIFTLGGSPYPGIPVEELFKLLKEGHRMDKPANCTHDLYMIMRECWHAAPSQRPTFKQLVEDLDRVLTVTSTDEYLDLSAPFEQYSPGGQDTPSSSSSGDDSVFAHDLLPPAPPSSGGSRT
UniProt P51532: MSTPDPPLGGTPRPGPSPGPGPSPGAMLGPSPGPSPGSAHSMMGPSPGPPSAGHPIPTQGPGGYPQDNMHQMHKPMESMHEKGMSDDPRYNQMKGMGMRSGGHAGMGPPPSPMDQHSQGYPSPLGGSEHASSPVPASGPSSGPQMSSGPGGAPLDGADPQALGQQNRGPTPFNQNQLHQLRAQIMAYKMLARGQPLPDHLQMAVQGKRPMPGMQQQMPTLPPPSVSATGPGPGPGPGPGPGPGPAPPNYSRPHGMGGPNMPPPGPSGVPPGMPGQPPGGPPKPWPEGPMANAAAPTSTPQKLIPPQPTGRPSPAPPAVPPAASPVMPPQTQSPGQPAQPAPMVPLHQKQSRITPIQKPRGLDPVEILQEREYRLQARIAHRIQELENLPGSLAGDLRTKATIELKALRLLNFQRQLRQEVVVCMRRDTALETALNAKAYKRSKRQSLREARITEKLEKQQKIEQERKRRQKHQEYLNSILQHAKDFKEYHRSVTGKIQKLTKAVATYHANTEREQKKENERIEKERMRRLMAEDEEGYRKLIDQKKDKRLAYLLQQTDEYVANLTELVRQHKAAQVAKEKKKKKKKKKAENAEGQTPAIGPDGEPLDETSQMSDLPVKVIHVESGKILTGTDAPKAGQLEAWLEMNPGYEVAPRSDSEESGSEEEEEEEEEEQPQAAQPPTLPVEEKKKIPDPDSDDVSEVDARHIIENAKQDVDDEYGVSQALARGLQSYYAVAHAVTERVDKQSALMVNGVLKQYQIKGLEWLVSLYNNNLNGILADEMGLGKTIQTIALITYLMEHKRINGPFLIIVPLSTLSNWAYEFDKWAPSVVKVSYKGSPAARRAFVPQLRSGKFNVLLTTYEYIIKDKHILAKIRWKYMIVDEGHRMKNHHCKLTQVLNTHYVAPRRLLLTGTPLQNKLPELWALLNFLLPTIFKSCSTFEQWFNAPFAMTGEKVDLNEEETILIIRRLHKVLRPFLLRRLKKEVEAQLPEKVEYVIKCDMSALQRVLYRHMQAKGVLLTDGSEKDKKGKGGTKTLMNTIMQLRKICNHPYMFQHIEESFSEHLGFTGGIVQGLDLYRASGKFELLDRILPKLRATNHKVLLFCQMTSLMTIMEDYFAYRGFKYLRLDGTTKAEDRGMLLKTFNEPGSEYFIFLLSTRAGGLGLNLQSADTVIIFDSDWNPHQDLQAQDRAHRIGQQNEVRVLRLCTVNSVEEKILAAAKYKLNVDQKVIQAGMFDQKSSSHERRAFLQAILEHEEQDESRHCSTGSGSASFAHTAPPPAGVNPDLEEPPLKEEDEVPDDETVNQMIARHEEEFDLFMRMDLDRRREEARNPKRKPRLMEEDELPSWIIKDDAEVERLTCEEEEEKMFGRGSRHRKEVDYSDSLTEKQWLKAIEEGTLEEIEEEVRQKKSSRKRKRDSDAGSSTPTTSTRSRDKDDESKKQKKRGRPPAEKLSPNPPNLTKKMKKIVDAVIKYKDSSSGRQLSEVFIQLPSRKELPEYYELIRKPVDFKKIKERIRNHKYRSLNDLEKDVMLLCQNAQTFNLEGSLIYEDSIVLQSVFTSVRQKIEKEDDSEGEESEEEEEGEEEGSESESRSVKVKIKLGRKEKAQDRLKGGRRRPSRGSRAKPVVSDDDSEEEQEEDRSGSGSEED

Target: FGF receptor 3 (human (endogenous in SUM149 and SUM149-BR cells)) (UniProt P22607)
Experiment: affinity purification with mass spectrometry; mass spectrometry of FGFR3-interacting proteins in response to talazoparib treatment in SUM149 parental and BR#09 cells

binding: binds
Substance: Brahma-related gene 1 (from UniProt P51532 1-1647)
